PMC10202959
No constants are given. Whether binding was seen depends on the method and setting. Some entries that bind do so weakly or less than the wild type.

Protein sequences, listed by entry. Tags and fused reporters are not part of them. Residues count along the entry.
UniProt P24821, residues 23-2201: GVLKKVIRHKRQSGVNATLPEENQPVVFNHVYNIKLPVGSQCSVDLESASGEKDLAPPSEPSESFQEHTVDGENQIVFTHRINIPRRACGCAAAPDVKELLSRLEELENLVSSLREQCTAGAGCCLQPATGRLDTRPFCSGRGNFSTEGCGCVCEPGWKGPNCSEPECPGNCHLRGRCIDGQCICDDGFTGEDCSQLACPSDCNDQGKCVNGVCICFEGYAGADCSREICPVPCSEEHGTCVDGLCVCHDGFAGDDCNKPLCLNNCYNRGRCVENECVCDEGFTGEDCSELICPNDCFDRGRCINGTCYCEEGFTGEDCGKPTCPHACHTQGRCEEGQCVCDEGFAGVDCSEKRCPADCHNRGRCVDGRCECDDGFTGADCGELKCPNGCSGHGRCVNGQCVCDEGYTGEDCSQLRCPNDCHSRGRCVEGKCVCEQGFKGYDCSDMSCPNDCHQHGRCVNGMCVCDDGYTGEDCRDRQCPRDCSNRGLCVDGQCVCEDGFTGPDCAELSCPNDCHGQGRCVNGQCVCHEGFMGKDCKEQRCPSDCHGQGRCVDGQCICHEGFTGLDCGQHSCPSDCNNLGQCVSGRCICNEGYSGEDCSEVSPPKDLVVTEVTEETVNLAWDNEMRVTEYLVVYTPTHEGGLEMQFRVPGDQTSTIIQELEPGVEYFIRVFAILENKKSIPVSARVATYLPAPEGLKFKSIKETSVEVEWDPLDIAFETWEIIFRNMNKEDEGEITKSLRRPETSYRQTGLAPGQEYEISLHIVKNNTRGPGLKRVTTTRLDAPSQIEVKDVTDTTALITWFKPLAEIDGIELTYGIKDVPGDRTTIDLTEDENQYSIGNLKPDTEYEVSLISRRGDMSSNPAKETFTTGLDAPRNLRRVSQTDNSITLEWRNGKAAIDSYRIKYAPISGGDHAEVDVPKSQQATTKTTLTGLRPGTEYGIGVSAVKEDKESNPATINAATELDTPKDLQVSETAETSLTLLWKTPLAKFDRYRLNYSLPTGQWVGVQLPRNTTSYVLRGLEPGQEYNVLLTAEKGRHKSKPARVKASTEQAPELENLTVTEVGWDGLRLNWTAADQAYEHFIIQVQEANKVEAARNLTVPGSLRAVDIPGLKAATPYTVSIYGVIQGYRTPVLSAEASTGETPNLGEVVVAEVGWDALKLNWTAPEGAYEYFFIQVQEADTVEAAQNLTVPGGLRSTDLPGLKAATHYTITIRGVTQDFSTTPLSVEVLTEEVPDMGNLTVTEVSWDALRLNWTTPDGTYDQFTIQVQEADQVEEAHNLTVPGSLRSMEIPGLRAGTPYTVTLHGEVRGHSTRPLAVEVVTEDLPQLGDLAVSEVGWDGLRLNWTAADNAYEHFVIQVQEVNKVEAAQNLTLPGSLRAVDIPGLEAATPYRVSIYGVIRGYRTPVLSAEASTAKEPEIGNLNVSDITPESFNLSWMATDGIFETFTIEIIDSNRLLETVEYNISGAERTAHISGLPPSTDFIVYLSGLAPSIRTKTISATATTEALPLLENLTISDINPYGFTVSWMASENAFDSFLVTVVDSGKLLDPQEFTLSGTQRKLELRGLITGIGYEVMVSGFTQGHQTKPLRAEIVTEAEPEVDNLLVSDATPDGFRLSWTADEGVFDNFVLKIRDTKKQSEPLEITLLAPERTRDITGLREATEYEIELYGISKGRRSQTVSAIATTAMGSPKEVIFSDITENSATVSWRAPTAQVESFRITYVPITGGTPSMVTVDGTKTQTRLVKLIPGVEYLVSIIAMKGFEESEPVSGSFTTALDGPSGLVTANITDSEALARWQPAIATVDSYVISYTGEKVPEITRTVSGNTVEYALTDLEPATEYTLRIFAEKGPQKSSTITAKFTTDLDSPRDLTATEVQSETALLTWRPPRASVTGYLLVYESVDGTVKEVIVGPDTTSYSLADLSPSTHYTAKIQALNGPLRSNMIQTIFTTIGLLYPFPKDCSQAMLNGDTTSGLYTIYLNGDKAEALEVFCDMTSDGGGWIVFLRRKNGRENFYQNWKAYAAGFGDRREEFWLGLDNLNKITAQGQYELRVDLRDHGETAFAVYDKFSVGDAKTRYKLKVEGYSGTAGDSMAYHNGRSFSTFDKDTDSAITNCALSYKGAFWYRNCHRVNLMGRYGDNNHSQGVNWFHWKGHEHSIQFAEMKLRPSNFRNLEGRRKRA
UniProt P04004, residues 20-478: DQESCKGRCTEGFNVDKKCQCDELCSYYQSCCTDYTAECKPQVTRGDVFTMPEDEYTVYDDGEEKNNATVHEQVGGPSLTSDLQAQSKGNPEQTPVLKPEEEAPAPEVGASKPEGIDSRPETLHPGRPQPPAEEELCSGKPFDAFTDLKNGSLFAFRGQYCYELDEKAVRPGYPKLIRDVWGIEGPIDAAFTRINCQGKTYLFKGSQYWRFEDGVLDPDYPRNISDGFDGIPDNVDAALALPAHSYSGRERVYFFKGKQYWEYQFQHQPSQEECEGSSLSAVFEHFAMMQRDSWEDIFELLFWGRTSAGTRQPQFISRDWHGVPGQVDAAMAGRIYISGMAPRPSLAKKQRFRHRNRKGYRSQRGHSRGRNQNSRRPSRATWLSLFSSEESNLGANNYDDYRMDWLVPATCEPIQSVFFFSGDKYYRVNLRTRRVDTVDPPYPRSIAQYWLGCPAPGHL
UniProt P31240, residues 82-190: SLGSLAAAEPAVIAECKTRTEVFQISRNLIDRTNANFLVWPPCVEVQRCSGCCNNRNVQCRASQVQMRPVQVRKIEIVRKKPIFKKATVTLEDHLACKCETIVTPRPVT

Tests used:
[1] = molecular target: T1, placenta growth factor PlGF-2 (human) (UniProt P49763); experiment: ELISA; by the methods: plates coated with 100 nM PlGF-2, AREG or NRTN, ECM proteins at increasing concentration in PBS-T with 0.1% BSA, detected with HRP-conjugated antibodies against ECM proteins; KD from a one site specific binding model (the legend of Fig. 1e tells the reverse orientation); both purified
T1 sequence: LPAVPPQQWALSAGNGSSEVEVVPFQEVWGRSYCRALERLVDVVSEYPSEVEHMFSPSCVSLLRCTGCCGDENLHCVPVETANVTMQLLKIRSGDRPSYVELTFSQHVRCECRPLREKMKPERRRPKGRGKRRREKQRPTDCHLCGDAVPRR

neurturin (NRTN) (human) [2] = molecular target: T2, neurturin (NRTN) (human) (UniProt Q99748); experiment: as above
T2 sequence: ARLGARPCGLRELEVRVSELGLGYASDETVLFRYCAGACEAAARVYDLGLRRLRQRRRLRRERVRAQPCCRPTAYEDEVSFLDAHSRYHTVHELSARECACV

[3] = molecular target: T3, amphiregulin (AREG) (human) (UniProt P15514); experiment: as above
T3 sequence: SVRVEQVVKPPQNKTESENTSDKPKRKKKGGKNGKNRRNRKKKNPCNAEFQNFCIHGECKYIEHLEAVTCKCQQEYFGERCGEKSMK

neurturin (NRTN) (human) [4] = molecular target: T2, neurturin (NRTN) (human); experiment: ELISA; plates coated with 100 nM protein candidate or BSA, blocked with 1% BSA; 100 nM ECM protein in PBS-T with 0.1% BSA, 1 h at 37 °C; bound ECM protein detected with HRP-conjugated antibodies; fold change over BSA control; both purified
[5] = molecular target: T3, amphiregulin (AREG) (human); experiment: as above
human tenascin C (human) = human tenascin C (human) (UniProt P24821); experiment: ELISA; plates coated with 100 nM ECM protein in PBS; PDGF-BB or IL-1Ra variants at increasing concentrations in PBS-T with 0.1% BSA, 1 h at room temperature; detected with biotinylated antibodies; KD from a one site specific binding model; both purified
[6] = molecular target: human vitronectin (human) (UniProt P04004); experiment: as above

Measured: binding

human tenascin C (from UniProt P24821 23-2201)
not listed: human tenascin C (human) | [6]
binds: all other assays above

platelet-derived growth factor-BB (PDGF-BB), wild type (from UniProt P31240 82-190) (ligand)
binds: human tenascin C (human) | [6]
